Tested on: peripheral blood mononuclear cells
Experiment: Cell viability of PBMC (MTT assay)
Type: cell-based, human
Details: 3 µM; control
Protocol: The formazan product was solubilized with SDS (10% in 20 mM HCl), and absorbance was measured at 570 nm using a Multiskan Spectrum microplate reader (Thermo Fisher Scientific).

## CN[C@@H]1C[C@H]2O[C@@](C)([C@@H]1OC)n1c3ccccc3c3c4c(c5c6ccccc6n2c5c31)C(=O)NC4 [staurosporine, reference compound]
  inhibition of formazan formation: 71.4 ± 6.2 % inhibition

Source: PMC6148290, “Endogenous metabolites of vitamin E limit inflammation by targeting 5-lipoxygenase” (Nature Communications, 2018)
